These are yes or no findings as the source states them, for the method shown. Binding seen in cells or lysates may run through a third protein. Some results given as binding are weak or reduced against the parent protein; the word gives no strength.
Target: FLAG-tagged EZH2 (in U2OS cells) (UniProt Q15910)
Test: co-IP; FLAG-tagged EZH2 immunoprecipitated from U2OS cells, endogenous EZHIP detected

Chains of the proteins cited; added tags and fusions are not shown.
UniProt Q15910: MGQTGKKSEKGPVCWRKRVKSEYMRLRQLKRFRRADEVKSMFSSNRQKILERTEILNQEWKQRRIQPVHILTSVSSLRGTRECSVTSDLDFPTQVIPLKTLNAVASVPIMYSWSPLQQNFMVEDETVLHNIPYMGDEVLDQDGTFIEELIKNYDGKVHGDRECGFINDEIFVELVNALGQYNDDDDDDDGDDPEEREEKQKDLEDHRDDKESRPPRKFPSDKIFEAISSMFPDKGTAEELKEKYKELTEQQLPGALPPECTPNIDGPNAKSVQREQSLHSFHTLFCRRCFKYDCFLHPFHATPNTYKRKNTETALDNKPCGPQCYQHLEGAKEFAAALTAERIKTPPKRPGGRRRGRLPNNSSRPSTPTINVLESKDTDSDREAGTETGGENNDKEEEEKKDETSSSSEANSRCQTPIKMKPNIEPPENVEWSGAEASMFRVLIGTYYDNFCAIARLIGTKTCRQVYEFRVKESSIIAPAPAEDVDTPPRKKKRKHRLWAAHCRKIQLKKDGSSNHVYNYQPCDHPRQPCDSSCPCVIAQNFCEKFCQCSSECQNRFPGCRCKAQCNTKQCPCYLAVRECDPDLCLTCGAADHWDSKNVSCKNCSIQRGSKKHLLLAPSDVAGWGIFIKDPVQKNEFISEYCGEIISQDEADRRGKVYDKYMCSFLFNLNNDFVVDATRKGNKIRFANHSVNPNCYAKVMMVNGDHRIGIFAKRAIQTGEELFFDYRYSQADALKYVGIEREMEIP

binding: binds
B1: endogenous EZHIP (U2OS cells) (protein, UniProt Q86X51 1-503)
chain: MATQSDMEKEQKHQQDEGQGGLNNETALASGDACGTGNQDPAASVTTVSSQASPSGGAALSSSTAGSSAAAATSAAIFITDEASGLPIIAAVLTERHSDRQDCRSPHEVFGCVVPEGGSQAAVGPQKATGHADEHLAQTKSPGNSRRRKQPCRNQAAPAQKPPGRRLFPEPLPPSSPGFRPSSYPCSGASTSSQATQPGPALLSHASEARPATRSRITLVASALRRRASGPGPVIRGCTAQPGPAFPHRATHLDPARLSPESAPGPARRGRASVPGPARRGCDSAPGPARRGRDSAPVSAPRGRDSAPGSARRGRDSAPGPALRVRTARSDAGHRSTSTTPGTGLRSRSTQQRSALLSRRSLSGSADENPSCGTGSERLAFQSRSGSPDPEVPSRASPPVWHAVRMRASSPSPPGRFFLPIPQQWDESSSSSYASNSSSPSRSPGLSPSSPSPEFLGLRSISTPSPESLRYALMPEFYALSPVPPEEQAEIESTAHPATPPEP

From PMC6513997
